Data on 1 molecule can be found in paper PMC7476715.

These are yes or no findings as the source states them, for the method shown. In cells and extracts the contact can be indirect. Binding calls can cover weak binding; strength is not graded here. Tags and fused reporters may be left off the sequences shown.

In this test the target is full-length rat SI-SII-SIII-IP3R1 (rat). Put plainly: co-IP; lysates of HEK293FT cells transfected with IP3R1 and FLAG-tagged Caspr2 JXM, immunoprecipitation with anti-IP3R1 antibody, immunoblotting.

B1: FLAG-tagged Caspr2 JXM (domain or fragment, UniProt Q9UHC6 592-1257)
chain: NSIYEPSCEAYKHLGQTSNYYWIDPDGSGPLGPLKVYCNMTEDKVWTIVSHDLQMQTPVVGYNPEKYSVTQLVYSASMDQISAITDSAEYCEQYVSYFCKMSRLLNTPDGSPYTWWVGKANEKHYYWGGSGPGIQKCACGIERNCTDPKYYCNCDADYKQWRKDAGFLSYKDHLPVSQVVVGDTDRQGSEAKLSVGPLRCQGDRNYWNAASFPNPSSYLHFSTFQGETSADISFYFKTLTPWGVFLENMGKEDFIKLELKSATEVSFSFDVGNGPVEIVVRSPTPLNDDQWHRVTAERNVKQASLQVDRLPQQIRKAPTEGHTRLELYSQLFVGGAGGQQGFLGCIRSLRMNGVTLDLEERAKVTSGFISGCSGHCTSYGTNCENGGKCLERYHGYSCDCSNTAYDGTFCNKDVGAFFEEGMWLRYNFQAPATNARDSSSRVDNAPDQQNSHPDLAQEEIRFSFSTTKAPCILLYISSFTTDFLAVLVKPTGSLQIRYNLGGTREPYNIDVDHRNMANGQPHSVNITRHEKTIFLKLDHYPSVSYHLPSSSDTLFNSPKSLFLGKVIETGKIDQEIHKYNTPGFTGCLSRVQFNQIAPLKAALRQTNASAHVHIQGELVESNCGASPLTLSPMSSATDPWHLDHLDSASADFPYNPGQGQAIRNGV
Consider B1, for which the binding result is “binds”.
